The target of one data set is KLF4 (Homo sapiens) (UniProt O43474). Briefly: EMSA. The conditions noted are these: EMSA: 2 ug nuclear extract or 50 ng KLF4, 30 min on ice, 6% native PAGE, recombinant protein, label: 32P. On the technique in general: Mobility shift assays separate free from complexed probe on a gel.
Data set [1] concerns the target Sp1 (VSMC nuclear extract) (UniProt Q01714). Briefly: EMSA. The settings on record: EMSA: 2 ug nuclear extract or 50 ng KLF4, 30 min on ice, 6% native PAGE; protein in an extract; label: 32P.
The target is the same in data set [2]. Description: EMSA supershift. The settings on record: EMSA: 2 ug nuclear extract or 50 ng KLF4, 30 min on ice, 6% native PAGE; protein in an extract; label: 32P.
In another data set the test system is Sp1 (Homo sapiens). Briefly: DPI-ELISA. The settings on record: 80 ng Sp1, displaced by KLF4; DPI-ELISA: 2 pmol biotin-DNA, 2 h; salt and pH not stated; recombinant protein; label: biotin.

Chains of the proteins cited; added tags and fusions are not shown. Lines headed by an entry give the natural chain unless they say otherwise; changes in a name come on top. Chains listed by the source or under a name are the forms on record and can include a tag or linker.
UniProt O43474: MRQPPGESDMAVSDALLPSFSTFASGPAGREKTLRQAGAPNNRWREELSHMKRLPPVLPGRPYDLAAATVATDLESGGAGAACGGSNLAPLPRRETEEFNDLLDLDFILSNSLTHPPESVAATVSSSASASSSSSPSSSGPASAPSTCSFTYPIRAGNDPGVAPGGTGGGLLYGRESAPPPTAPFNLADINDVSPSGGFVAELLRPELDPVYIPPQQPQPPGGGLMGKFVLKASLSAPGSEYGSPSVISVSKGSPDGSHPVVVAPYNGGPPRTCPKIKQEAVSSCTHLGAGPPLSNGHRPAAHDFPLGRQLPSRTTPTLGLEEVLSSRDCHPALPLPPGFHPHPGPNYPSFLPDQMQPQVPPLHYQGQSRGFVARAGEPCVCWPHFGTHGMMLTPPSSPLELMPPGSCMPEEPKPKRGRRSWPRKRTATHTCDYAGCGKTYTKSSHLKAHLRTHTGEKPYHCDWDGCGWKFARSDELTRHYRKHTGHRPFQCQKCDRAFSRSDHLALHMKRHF
UniProt Q01714, whole entry: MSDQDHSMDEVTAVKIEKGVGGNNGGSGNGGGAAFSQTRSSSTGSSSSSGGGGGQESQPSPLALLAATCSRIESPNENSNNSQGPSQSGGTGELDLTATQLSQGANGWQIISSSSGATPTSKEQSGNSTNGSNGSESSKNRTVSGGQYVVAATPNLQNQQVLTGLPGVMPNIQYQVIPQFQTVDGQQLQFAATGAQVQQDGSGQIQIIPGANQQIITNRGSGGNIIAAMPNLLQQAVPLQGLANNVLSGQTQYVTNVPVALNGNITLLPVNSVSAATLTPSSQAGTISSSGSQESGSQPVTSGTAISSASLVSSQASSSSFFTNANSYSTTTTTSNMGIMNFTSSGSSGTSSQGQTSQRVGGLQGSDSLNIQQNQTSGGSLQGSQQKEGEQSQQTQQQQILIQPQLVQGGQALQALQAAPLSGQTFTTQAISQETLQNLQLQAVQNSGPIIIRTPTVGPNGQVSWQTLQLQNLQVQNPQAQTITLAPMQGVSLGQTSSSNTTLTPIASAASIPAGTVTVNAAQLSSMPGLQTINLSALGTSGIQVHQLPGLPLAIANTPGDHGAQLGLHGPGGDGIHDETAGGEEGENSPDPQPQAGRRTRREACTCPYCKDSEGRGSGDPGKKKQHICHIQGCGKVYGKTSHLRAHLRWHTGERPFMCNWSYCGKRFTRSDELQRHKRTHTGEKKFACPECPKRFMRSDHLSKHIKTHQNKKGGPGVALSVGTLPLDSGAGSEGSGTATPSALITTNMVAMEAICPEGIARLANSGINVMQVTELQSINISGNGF
Sp1 (Homo sapiens), one chain, as listed by the source: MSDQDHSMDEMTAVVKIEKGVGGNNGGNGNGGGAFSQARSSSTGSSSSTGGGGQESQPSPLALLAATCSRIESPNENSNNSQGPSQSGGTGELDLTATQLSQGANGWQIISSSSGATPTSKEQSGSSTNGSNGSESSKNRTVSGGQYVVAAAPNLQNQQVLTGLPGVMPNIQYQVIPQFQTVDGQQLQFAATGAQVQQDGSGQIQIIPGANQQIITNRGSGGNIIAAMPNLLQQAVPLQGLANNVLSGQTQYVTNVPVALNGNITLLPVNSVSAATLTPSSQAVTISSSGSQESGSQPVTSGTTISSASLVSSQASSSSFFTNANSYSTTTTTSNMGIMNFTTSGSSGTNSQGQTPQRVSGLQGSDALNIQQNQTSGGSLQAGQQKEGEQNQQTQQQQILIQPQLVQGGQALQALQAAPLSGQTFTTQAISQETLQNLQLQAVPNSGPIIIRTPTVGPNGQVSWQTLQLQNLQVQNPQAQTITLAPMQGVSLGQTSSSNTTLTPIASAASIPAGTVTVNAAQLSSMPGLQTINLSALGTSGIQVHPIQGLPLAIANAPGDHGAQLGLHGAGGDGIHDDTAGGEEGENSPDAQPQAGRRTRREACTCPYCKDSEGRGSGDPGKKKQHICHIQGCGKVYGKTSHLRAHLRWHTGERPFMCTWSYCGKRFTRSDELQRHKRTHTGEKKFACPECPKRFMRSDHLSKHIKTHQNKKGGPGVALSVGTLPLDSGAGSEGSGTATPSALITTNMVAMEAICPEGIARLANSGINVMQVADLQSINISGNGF

For at least one entry, the source does not settle the construct or the ends of the probe. For some assays here: A negative result means that nothing was seen under these conditions. For some assays here: A weaker result is weaker than the reference pair of the same experiment. For some assays here: Where cells or extracts were used, other partners may take part.

“CGCCCCCGGTGGCCCAAACCCGGCCATTAAGAT (double strand) [CPI-17 GC box 3 mutant]”: the binding result with KLF4 (Homo sapiens) (legend: minimal binding, text: abolished) was “binds more weakly”; in data set [1], “no binding”.
For “CGCCCCCGGTGGCCCCGCCCCGGCCATTAAGAT (double strand) [CPI-17 GC box 3 WT]”, the binding result (in the data set with KLF4 (Homo sapiens); in data set [2]) was “binds” each time.
Regarding “GGCGATCGGGGAGGGAAAGGTCCCAGAGCACGA (double strand) [CPI-17 GC box 1 mutant]”, the binding result with KLF4 (Homo sapiens) (mutation did not affect the minimal box 1 binding) is “binds more weakly”.
As to “GGTCCCAGAGCACGAGCCCCCGCCCCCGGTGGCCCC (double strand) [CPI-17 GC box 2 WT]”, the binding result (with KLF4 (Homo sapiens); in data set [2]) was “binds” each time.
In the case of “GGTCCCAGAGCACGAGCCCCCGCCCCCGGTGGCCCC (double strand) [CPI-17 GC box 2 biotinylated]”, the binding result in the data set on Sp1 (Homo sapiens) is “binds”.
“GGCGATCGGGGAGGGGCGGGTCCCAGAGCACGA (double strand) [CPI-17 GC box 1 WT]”: in the data set with KLF4 (Homo sapiens) (minimal binding, far less than boxes 2 and 3), the binding result is reported as “binds more weakly”.
In the case of “GGTCCCAGAGCACGAGCCCCAAACCCCGGTGGCCCC (double strand) [CPI-17 GC box 2 mutant]”, the binding result (with KLF4 (Homo sapiens); in data set [1]) was “no binding” each time.
